# According to PubChem BioAssay AID504834 (National Center for Advancing Translational Sciences (NCATS), 2011):
# The campaign covered roughly 320,000 compounds. About 22,000 (6.9%) were called active. Inconclusive means that the source gave no clear call. Such entries were picked first, then a sample of the others. The call rests on the fitted dose curve; in most records, active means well fitted inhibition curve with a large enough effect; inconclusive means small, poorly fitted or top-dose-only effect, or another doubt; inactive means no such curve, though single readings can be large or run the other way. A potency beside an inconclusive call is a rough fit, not a confirmed value.
# Assay: Primary qHTS for delayed death inhibitors of the malarial parasite plastid, 96 hour incubation
# Conditions: P. falciparum luciferase reporter growth; series mostly up to 28.7 µM
# Summary of the method: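 Two-generation exposure (96 h) targets delayed-death phenotype. Reporter parasites carrying integrated firefly luciferase, in red cells at 2% hematocrit and 0.05% parasitemia final, kept at 37 C, 5% CO2; luminescence loss indicates inhibition.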
# Potency means the concentration at half of the fitted maximal effect.
row,Structure (SMILES),Potency
1,Cc1ccccc1Nc1c(C)c(C)nc2ncnn12,"inconclusive: 18.5 µM [inhibitor, single point]"
2,CC(C)C[C@H](NC(=O)NCc1ccccc1Cl)C(=O)O,active: 0.928 µM
3,O=c1[nH]c(CN2CCN(S(=O)(=O)c3ccc4c(c3)OCCO4)CC2)nc2sc3c(c12)CCCC3,"inconclusive: 0.165 µM [inhibitor, full curve]"
4,COc1cccc(CNc2ncnc3cc(OC)c(OC)cc23)c1,"inconclusive: 16.5 µM [inhibitor, partial curve, poor fit]"
5,Cc1cc2c(cc1S(=O)(=O)N1CCN(c3cccc(C)c3C)CC1)OCCN2C,"inconclusive: 18.5 µM [inhibitor, partial curve, poor fit]"
6,COc1ccc(C(=O)COc2nc(C)cc(C)c2C#N)cc1,"inconclusive: 9.28 µM [inhibitor, partial curve, poor fit]"
7,C=CCNC(=O)/C(=C\c1ccc2c(c1)OCO2)NC(=O)c1ccc(Br)cc1,"inconclusive: 0.0026 µM [inhibitor, full curve, poor fit]"
8,Cc1cc(OCC(=O)NCCc2c[nH]c3ccccc23)c2c(C)cc(=O)oc2c1,"inconclusive: 2.08 µM [inhibitor, partial curve, poor fit]"
9,Cc1cc(N=Cc2c(O)n(-c3ccc(C)c(C)c3)c(=O)c3ccccc23)no1,"inconclusive: 18.5 µM [inhibitor, single point]"
10,CC(C)(C)n1nc2c(c1NC(=O)CCCc1ccccc1)CS(=O)C2 (stereo not drawn),"inconclusive: 18.5 µM [inhibitor, single point]"
11,COc1ccc(S(=O)(=O)NC2CC(=O)N(c3ccc(C)c(C)c3)C2)cc1C (stereo not drawn),inactive
12,CNC(C)[C@@H](O)c1ccccc1 (stereo partly drawn),"inconclusive: 1.9 µM [inhibitor, full curve]"
13,COc1ccc(/C=C/C(=O)NCCc2nc3ccccc3[nH]2)cc1,"inconclusive: 8.28 µM [inhibitor, partial curve]"
14,COc1ccc(NS(=O)(=O)c2cc(NC(=O)CCNC(C)=O)ccc2N2CCOCC2)cc1,inactive
15,Nc1ccc(-c2nc3c(Cl)cc(N)cc3[nH]2)cc1,active: 9.28 µM
16,CCN(CC(=O)NCc1ccc(F)cc1)Cc1cc(=O)n2ccsc2n1,"inconclusive: 0.0928 µM [inhibitor, full curve, poor fit]"
17,CCOC(=O)c1c(CN2CCN(c3ccccc3)CC2)oc2cc(Br)c(O)cc12,"inconclusive: 10.4 µM [inhibitor, single point]"
18,COc1ccccc1NS(=O)(=O)c1cc(NC(=O)Cn2cnc3c2c(=O)n(C)c(=O)n3C)ccc1C,"inconclusive: 4.15 µM [inhibitor, single point]"
19,COCCN=c1scc(-c2cc(OC)c(OC)c(OC)c2)n1/N=C/c1c(C)[nH]c2ccccc12,active: 2.62 µM
20,C/C(=N\Nc1ccc(C(=O)c2c(C)cc3ccccn23)cc1[N+](=O)[O-])c1ccc(O)cc1,"inconclusive: 18.5 µM [inhibitor, single point]"
21,Cc1cc(C)c(C)c(S(=O)(=O)N2CCN(c3ncnc4sc(C)c(C)c34)CC2)c1C,"inconclusive: 14.7 µM [inhibitor, partial curve, poor fit]"
22,O=C(COc1ccccc1[N+](=O)[O-])N1CCCc2ccccc21,inactive
23,Cc1cc(C)c(C(=O)/C=C/c2cccc3ccccc23)c(=O)[nH]1,"inconclusive: 13.1 µM [inhibitor, partial curve]"

row,Structure (SMILES),Potency
1,Cc1ccc(C)c(NC(=O)CSc2nnc(NC(=O)C3CC3)s2)c1,inactive
2,Clc1ccc2[nH]c3c(c2c1)CCNC3,"inconclusive: 18.5 µM [inhibitor, single point]"
3,COc1cccc(N2CCN(Cc3nnnn3C3CCCCC3)CC2)c1,"inconclusive: 4.15 µM [inhibitor, partial curve, poor fit]"
4,CC(=O)C1=C(O)C(=O)N(Cc2cccnc2)C1c1ccc(Cl)cc1 (stereo not drawn),"inconclusive: 2.08 µM [inhibitor, partial curve, poor fit]"
5,O=C(NCC1CCCO1)c1ccc2c(=O)n(Cc3ccc(Cl)cc3)c(=S)[nH]c2c1 (stereo not drawn),"inconclusive: 0.0033 µM [inhibitor, full curve, poor fit]"
6,COc1ccc(C(=O)Nc2ccnn2C2CCN(C(=O)c3cnsn3)CC2)cc1,inactive
7,CC(C)CCNC(=O)c1onc(CSc2ccncc2)c1C(=O)NCCC(C)C,inactive
8,CCOC(=O)c1c(NC(=O)CSc2nc3ccccc3c(=O)n2-c2ccc(F)cc2)sc(C(C)=O)c1C,active: 3.29 µM
9,C(=N\Nc1nncn1/N=C/c1ccco1)/c1ccco1,inactive
10,CCOc1ccccc1NC(=O)C(Sc1ccccc1)c1ccccc1 (stereo not drawn),"inconclusive: 14.7 µM [inhibitor, partial curve, poor fit]"
11,O=C(CC(=O)Nc1ccccn1)Nc1ccccn1,active: 9.28 µM
12,COc1cccc(OC)c1C1=CC(=O)C[C@H](c2ccc3c(c2)OCO3)C1,"inconclusive: 1.17 µM [inhibitor, partial curve, poor fit]"
13,CCCN(CC(=O)Nc1ccccc1C)C(=O)c1ccc(C(=O)c2ccccc2)cc1,"inconclusive: 18.5 µM [inhibitor, single point]"
14,CCCCn1c(CCC(=O)O)nc2cc(S(=O)(=O)N(CC)CC)ccc21,"inconclusive: 1.47 µM [inhibitor, partial curve, poor fit]"
15,COc1ccc(CN2CC=C(c3ccc(F)cc3)CC2)cc1Br,inactive
16,Cc1ccc(C)c(N(C(=O)c2ccco2)C(C(=O)NC2CCCC2)c2ccco2)c1 (stereo not drawn),inactive
17,CC(=O)c1cccc(NS(=O)(=O)N2CCOCC2)c1,"inconclusive: 10.4 µM [inhibitor, partial curve]"
18,Cc1cc(C(=O)C(C)OC(=O)c2ccc(NC(=O)CC#N)cc2)c(C)n1-c1ccccc1 (stereo not drawn),active: 8.28 µM
19,O=C(NC1CCSc2ccccc21)c1cc(S(=O)(=O)N2CCOCC2)ccc1Cl (stereo not drawn),inactive
20,N#Cc1cc(S(=O)(=O)c2ccc(F)cc2)c(N)[nH]c1=O,"inconclusive: 2.62 µM [inhibitor, single point]"
21,O=C(Nc1ccc(N2CCN(C(=O)c3ccccc3F)CC2)cc1)c1cncc(Br)c1,"inconclusive: 8.28 µM [inhibitor, partial curve]"
22,COc1ccc(C(C)(C)C)cc1NC(=O)Cn1cnnn1,inactive
23,Cc1ccc(C(C(=O)NC2CCCC2)N(C(=O)Cc2cccs2)c2ccc(C)c(C)c2)o1 (stereo not drawn),active: 10.4 µM

# Reformatted with tabs: part of the list above.
row	Structure (SMILES)	Potency
3	COc1cccc(N2CCN(Cc3nnnn3C3CCCCC3)CC2)c1	inconclusive: 4.15 µM [inhibitor, partial curve, poor fit]
7	CC(C)CCNC(=O)c1onc(CSc2ccncc2)c1C(=O)NCCC(C)C	inactive
23	Cc1ccc(C(C(=O)NC2CCCC2)N(C(=O)Cc2cccs2)c2ccc(C)c(C)c2)o1 (stereo not drawn)	active: 10.4 µM

# Next records.

row,Structure (SMILES),Potency
1,O=C(COc1ccc(Cl)cc1)NCCS(=O)(=O)N1CCN(c2ccc(F)cc2)CC1,inactive
2,CCOc1ccccc1NC(=O)CC1(CC(=O)N2CCOCC2)CCCC1,"inconclusive: 7.38 µM [inhibitor, partial curve, poor fit]"
3,COc1ccc(C)cc1NC(=O)C1CCCN(S(=O)(=O)c2cccc3cccnc23)C1 (stereo not drawn),"inconclusive: 18.5 µM [inhibitor, single point]"
4,Cc1ccc(C)c(NC(=O)C2CCCN2S(=O)(=O)c2ccc3c(c2)n(C)c(=O)c(=O)n3C)c1 (stereo not drawn),"inconclusive: 18.5 µM [inhibitor, single point]"
5,O=C(CSc1nnc2c(n1)[nH]c1ccccc12)Nc1nncs1,"inconclusive: 20.8 µM [inhibitor, single point]"
6,Cn1c(=O)c2sccc2n2c(CCCC(=O)NCc3cccnc3)nnc12,"inconclusive: 1.04 µM [inhibitor, full curve, poor fit]"
7,O=C(NC(=S)Nc1cc(S(=O)(=O)N2CCOCC2)ccc1N1CCOCC1)c1ccco1,"inconclusive: 18.5 µM [inhibitor, single point]"
8,COc1ccc(C(C)NC(=O)c2ccncc2)cc1 (stereo not drawn),"inconclusive: 3.7 µM [inhibitor, single point]"
9,C/C(=N/NS(=O)(=O)c1ccc(C)cc1)[C@H]1C[C@@H]1c1ccccc1,inactive
10,O=C(CSc1nccc(=O)[nH]1)Nc1ccc(N2CCOCC2)c(Cl)c1,inactive
11,Cc1cccn2c(CN[C@H]3CCCCNC3=O)c(C(=O)N3CCOCC3)nc12,active: 9.28 µM
12,CCOc1ccc2nc(N3CCCC(C(=O)N4CCN(CC)CC4)C3)sc2c1 (stereo not drawn),inactive
13,COc1ccc(-c2nc(CN3CCCCC3c3nccn3C)c(C)o2)c(C)c1C (stereo not drawn),"inconclusive: 18.5 µM [inhibitor, single point]"
14,CC(C)C1N(C(=O)CN2CCCC2)CCN1S(=O)(=O)c1ccccc1 (stereo not drawn),"inconclusive: 9.28 µM [inhibitor, partial curve, poor fit]"
15,COC(=O)c1sccc1NC(=O)CSCCc1ccncc1,"inconclusive: 1.85 µM [inhibitor, single point]"
16,CCCN(C(=O)c1ccc([N+](=O)[O-])c(C)c1)c1c(N)n(Cc2ccccc2)c(=O)[nH]c1=O,inactive
17,CCCCn1c(N)c(N(CC(C)C)C(=O)CCC2CCCCC2)c(=O)[nH]c1=O,"inconclusive: 18.5 µM [inhibitor, single point]"
18,COC(=O)CNc1nc(-c2cccnc2)nc2ccccc12,"inconclusive: 10.4 µM [inhibitor, partial curve]"
19,O=C(Nn1cnnc1)C1Cc2ccccc2CN1S(=O)(=O)c1ccc(F)cc1 (stereo not drawn),active: 8.28 µM
20,O=C(Nc1cccc2ccccc12)c1ccc([N+](=O)[O-])s1,active: 5.22 µM
21,COc1ccc(C(C(=O)NCC2CCCO2)N(C(=O)c2snc(C(N)=O)c2N)c2ccccc2)cc1OC (stereo not drawn),"inconclusive: 18.5 µM [inhibitor, partial curve, poor fit]"
22,COc1ccc(/C=C/C(=O)Nc2cc(S(=O)(=O)N3CCOCC3)ccc2N2CCCC2)cc1OC,"inconclusive: 18.5 µM [inhibitor, single point]"
